The values that follow come from the supplement of paper PMC12819154, “High-throughput peptide-centric local stability assay extends protein–ligand identification to membrane proteins, tissues and bacteria” (Nature Structural & Molecular Biology, 2025).

The chains behind the UniProt entries cited, without tags or fusion partners. Where a name states a change or a piece, a line headed by the entry shows the natural chain unless it says otherwise.
UniProt Q9NS28: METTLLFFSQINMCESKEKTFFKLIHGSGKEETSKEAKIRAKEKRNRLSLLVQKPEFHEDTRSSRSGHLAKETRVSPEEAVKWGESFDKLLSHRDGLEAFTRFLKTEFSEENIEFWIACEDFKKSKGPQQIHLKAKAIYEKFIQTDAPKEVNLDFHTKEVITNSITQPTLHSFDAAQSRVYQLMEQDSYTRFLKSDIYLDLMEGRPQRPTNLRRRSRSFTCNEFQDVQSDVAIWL
UniProt Q9NVM6: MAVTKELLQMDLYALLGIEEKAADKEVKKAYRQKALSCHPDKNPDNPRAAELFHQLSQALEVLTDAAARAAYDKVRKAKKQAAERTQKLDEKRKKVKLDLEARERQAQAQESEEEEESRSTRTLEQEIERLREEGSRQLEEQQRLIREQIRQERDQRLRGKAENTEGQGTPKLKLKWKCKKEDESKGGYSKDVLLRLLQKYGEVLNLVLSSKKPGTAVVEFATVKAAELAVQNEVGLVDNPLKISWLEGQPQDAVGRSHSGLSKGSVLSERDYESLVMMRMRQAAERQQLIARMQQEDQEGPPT
UniProt Q9NRD5, whole entry: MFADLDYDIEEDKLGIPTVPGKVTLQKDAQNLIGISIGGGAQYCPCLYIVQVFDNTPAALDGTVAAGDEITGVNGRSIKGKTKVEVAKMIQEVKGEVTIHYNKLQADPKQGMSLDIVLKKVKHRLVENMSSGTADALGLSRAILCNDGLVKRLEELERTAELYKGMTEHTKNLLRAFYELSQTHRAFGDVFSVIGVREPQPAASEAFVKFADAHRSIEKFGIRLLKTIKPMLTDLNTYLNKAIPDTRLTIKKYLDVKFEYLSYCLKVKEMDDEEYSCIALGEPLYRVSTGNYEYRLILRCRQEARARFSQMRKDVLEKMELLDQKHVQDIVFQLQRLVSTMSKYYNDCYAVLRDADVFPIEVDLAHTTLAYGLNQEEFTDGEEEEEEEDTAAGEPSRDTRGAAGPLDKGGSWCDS
UniProt Q9NYA1, whole entry: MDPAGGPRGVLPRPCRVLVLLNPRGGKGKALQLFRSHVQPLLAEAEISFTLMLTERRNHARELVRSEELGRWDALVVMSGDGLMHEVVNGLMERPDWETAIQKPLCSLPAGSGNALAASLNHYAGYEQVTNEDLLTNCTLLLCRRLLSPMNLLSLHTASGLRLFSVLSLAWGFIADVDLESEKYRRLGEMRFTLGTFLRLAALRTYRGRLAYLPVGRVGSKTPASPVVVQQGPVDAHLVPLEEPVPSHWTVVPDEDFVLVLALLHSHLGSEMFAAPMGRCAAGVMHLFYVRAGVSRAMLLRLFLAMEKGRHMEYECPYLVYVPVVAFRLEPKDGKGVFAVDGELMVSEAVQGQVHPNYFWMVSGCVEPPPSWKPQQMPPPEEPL
UniProt Q9NYA4: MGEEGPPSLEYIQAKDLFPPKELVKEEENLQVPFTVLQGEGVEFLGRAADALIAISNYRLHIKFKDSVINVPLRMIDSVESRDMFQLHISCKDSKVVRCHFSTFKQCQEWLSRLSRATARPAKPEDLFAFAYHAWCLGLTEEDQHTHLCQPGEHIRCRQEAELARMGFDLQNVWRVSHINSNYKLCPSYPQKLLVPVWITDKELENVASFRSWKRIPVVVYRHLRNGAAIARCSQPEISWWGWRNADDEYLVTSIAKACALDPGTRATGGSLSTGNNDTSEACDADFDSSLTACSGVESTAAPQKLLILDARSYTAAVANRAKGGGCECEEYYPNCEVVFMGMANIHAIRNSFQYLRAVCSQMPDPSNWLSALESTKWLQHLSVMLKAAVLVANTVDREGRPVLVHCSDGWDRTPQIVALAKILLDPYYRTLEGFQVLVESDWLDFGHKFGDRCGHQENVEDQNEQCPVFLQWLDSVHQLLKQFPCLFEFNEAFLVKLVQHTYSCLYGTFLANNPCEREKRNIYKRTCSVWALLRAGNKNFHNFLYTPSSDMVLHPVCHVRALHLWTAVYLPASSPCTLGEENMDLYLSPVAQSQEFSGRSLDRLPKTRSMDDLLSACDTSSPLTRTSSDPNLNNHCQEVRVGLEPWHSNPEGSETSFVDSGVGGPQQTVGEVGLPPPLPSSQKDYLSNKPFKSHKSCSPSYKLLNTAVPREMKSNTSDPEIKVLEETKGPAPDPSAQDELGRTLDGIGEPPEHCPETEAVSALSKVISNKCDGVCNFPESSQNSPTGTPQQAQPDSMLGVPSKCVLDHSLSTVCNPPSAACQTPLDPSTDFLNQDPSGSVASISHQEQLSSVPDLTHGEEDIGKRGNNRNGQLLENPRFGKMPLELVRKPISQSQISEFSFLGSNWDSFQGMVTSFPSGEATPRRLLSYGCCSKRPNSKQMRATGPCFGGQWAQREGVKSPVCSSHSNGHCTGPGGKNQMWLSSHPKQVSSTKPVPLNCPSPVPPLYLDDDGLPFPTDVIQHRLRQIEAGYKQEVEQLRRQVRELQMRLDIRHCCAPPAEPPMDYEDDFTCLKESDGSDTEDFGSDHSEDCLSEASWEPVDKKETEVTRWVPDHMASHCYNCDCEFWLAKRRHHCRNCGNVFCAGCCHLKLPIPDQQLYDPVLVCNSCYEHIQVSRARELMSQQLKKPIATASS
UniProt Q9NTX7: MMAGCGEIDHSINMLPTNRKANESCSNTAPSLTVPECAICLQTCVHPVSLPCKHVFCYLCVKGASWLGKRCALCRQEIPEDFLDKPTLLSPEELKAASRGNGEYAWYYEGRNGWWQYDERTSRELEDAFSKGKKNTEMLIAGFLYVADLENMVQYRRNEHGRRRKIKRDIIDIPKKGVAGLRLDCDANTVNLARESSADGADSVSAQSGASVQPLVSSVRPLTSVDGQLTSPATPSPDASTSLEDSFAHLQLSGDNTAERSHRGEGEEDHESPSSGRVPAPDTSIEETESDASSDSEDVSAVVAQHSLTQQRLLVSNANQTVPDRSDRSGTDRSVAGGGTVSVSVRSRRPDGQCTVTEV
UniProt Q9NRG7: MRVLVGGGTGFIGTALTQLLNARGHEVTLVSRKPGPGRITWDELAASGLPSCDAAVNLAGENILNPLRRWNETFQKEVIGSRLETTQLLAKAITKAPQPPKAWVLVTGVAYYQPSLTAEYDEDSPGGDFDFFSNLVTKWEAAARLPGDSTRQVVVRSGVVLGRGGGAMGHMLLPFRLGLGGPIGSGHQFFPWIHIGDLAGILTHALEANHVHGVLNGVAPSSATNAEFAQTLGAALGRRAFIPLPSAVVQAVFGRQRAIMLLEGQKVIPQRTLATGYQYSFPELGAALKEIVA
UniProt Q9NWY4: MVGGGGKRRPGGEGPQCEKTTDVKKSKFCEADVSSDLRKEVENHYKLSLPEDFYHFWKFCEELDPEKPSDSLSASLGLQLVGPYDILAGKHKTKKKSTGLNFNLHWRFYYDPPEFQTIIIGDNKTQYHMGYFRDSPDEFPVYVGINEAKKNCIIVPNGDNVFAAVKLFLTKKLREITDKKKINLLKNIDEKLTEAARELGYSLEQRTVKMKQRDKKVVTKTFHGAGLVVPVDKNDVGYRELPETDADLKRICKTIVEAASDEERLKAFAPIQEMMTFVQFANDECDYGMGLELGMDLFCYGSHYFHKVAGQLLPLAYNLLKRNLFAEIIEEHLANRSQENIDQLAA
UniProt Q9NU19: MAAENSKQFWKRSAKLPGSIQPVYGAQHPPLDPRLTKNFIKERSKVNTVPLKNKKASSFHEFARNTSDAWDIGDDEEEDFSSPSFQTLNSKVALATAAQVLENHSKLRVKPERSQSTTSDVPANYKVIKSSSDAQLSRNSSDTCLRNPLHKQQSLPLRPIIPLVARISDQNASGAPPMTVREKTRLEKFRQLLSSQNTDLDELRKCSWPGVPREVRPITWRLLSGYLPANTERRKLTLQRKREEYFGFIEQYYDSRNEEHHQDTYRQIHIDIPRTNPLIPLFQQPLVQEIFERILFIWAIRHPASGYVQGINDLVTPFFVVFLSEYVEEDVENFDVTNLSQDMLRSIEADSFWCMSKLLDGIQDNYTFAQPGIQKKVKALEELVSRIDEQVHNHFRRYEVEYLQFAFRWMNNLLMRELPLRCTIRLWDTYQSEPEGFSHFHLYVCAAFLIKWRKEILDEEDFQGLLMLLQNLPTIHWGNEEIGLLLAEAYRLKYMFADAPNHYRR
UniProt Q9NYB9: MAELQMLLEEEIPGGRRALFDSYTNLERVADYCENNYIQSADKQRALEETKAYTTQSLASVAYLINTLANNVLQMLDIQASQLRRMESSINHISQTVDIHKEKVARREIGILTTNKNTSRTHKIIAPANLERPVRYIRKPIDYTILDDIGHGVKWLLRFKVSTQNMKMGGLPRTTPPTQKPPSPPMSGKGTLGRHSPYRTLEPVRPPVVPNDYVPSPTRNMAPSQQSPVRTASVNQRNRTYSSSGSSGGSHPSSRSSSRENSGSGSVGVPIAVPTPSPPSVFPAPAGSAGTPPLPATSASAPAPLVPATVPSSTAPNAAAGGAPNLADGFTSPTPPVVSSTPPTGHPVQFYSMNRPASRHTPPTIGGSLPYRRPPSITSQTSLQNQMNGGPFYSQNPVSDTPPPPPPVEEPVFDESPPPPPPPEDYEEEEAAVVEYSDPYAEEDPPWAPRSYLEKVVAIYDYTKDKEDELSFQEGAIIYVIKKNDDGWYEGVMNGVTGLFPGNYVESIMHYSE
UniProt Q9NXG2: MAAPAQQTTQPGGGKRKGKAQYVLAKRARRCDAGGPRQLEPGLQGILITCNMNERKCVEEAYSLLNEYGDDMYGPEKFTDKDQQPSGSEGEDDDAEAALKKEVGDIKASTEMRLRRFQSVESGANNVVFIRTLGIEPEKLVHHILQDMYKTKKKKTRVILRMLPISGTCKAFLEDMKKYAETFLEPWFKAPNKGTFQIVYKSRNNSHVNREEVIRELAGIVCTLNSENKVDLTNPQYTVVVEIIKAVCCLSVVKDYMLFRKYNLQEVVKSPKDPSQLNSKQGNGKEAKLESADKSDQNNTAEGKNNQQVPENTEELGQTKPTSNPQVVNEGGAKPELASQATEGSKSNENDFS
UniProt Q9NWX6: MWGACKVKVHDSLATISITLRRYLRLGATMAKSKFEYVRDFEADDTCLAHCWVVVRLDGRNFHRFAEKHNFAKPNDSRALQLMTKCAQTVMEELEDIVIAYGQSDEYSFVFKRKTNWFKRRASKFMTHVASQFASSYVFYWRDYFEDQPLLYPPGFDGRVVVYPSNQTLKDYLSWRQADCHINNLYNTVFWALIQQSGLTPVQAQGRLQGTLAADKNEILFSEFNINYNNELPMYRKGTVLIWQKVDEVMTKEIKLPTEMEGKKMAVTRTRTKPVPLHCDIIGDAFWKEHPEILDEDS
UniProt Q9NX46: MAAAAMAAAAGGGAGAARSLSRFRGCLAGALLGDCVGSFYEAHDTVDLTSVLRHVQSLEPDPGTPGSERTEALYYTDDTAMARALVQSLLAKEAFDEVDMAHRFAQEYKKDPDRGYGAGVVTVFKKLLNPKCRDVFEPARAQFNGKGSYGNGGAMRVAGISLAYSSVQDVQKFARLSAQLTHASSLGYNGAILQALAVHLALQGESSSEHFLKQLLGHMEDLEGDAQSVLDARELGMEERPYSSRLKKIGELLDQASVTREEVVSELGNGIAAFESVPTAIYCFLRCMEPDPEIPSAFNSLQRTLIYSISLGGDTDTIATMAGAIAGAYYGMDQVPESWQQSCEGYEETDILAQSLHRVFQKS
UniProt Q9NWM3: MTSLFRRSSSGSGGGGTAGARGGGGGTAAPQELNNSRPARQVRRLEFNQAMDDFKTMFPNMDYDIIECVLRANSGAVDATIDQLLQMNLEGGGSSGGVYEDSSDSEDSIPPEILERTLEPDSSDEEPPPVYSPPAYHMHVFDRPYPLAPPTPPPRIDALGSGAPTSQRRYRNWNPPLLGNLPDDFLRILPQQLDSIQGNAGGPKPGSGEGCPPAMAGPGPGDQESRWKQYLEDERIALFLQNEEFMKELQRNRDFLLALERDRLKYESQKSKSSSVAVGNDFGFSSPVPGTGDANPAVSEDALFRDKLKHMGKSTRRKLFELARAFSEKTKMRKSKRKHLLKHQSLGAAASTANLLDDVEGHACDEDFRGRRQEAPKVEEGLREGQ
UniProt Q9NWT6: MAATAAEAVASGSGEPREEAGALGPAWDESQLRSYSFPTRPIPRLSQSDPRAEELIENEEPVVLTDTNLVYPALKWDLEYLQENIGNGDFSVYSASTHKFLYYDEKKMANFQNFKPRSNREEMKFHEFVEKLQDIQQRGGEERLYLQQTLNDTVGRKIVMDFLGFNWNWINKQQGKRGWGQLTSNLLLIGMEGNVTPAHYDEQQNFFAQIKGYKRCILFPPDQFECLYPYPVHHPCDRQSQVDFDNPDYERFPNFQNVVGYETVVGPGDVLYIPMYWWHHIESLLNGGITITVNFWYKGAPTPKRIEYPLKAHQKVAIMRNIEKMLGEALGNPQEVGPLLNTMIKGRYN
UniProt Q9NZ43: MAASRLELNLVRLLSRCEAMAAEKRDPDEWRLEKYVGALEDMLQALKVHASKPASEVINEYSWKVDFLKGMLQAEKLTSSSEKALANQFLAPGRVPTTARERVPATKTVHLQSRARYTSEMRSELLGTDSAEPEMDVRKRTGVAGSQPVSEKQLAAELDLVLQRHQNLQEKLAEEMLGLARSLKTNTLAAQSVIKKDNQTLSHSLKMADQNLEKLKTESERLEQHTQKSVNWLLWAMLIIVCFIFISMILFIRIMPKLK

This is one part of the list. Most entries show no effect beyond the scatter of the controls.

Compound in the test: CN[C@@H]1C[C@H]2O[C@@](C)([C@@H]1OC)n1c3ccccc3c3c4c(c5c6ccccc6n2c5c31)C(=O)NC4 [staurosporine]
In words: log2 fold change of tryptic peptide abundance, ligand vs vehicle (limited proteolysis) (log2 ratio); higher = more trypsin-susceptible (destabilized). As to conditions: ligand concentration: 20 uM; sample: K562 cleared lysate; digestion: 4 min, 22 C (HT-PELSA RT4min, Orbitrap Astral).
In the case of “GGA3 (peptide sequence: SKNPDDLQEANK, peptide start residue: 184) (UniProt Q9NZ52)”, the log2 fold change is -0.149. The figure for “RGS18 (peptide sequence: ETRVSPEEAVK, peptide start residue: 72) (UniProt Q9NS28)” is 0.0557; for “DNAJC17 (peptide sequence: MQQEDQEGPPT, peptide start residue: 294) (UniProt Q9NVM6)” it is -0.0888; for “PICK1 (peptide sequence: AILCNDGLVKR, peptide start residue: 142) (UniProt Q9NRD5)” it is -0.857.

As for “SPHK1 (peptide sequence: CAAGVMHLFYVRAGVSR, peptide start residue: 280) (UniProt Q9NYA1)”, the log2 fold change is -0.148. As for “MTMR4 (peptide sequence: LLNTAVPR, peptide start residue: 704) (UniProt Q9NYA4)”, the figure is -0.31; as for “RNF146 (peptide sequence: SVAGGGTVSVSVR, peptide start residue: 334) (UniProt Q9NTX7)”, -0.454; as for “GAR1 (peptide sequence: DFYFSVK, peptide start residue: 122) (UniProt Q9NY12)”, -0.102. With “SMC4 (peptide sequence: CHEMKPNLGAIAEYK, peptide start residue: 1083) (UniProt Q9NTJ3)”, the log2 fold change was determined as 0.363. For the target “SDR39U1 (peptide sequence: GGGAMGHMLLPFR, peptide start residue: 164) (UniProt Q9NRG7)”, the log2 fold change is 0.142. The figure for “FBXO28 (peptide sequence: HADILAAVETR, peptide start residue: 139) (UniProt Q9NVF7)” is 0.958; for “UniProt Q9NWY4 (peptide sequence: RPGGEGPQCEKTTDVK, peptide start residue: 9)” it is -0.348; for “TBC1D22B (peptide sequence: VALATAAQVLENHSK, peptide start residue: 92) (UniProt Q9NU19)” it is 0.15. Turning to “ABI2 (peptide sequence: KPIDYTILDDIGHGVK, peptide start residue: 139) (UniProt Q9NYB9)”, the log2 fold change amounted to 0.469. As for “C1orf112 (peptide sequence: TGFVDETEAAKVER, peptide start residue: 749) (UniProt Q9NSG2)”, the figure is -0.133; as for “MRPL17 (peptide sequence: QSQEASNHSSHTAQTPGI, peptide start residue: 158) (UniProt Q9NRX2)”, -0.095. As for “THUMPD1 (peptide sequence: LESADKSDQNNTAEGK, peptide start residue: 289) (UniProt Q9NXG2)”, the log2 fold change was -0.076. As for “EXOC1 (peptide sequence: VIKEYPGK, peptide start residue: 812) (UniProt Q9NV70)”, the figure is 0.662; as for “THG1L (peptide sequence: LPTEMEGKK, peptide start residue: 256) (UniProt Q9NWX6)”, -0.115.

Regarding “ADPRHL2 (peptide sequence: ALVQSLLAKEAFDEVDMAHR, peptide start residue: 84) (UniProt Q9NX46)”, the log2 fold change worked out at 0.294. As for “UniProt Q9NWM3 (peptide sequence: GGGGGTAAPQELNNSRPAR, peptide start residue: 22)”, the figure is 0.227; as for “HIF1AN (peptide sequence: RIEYPLK, peptide start residue: 305) (UniProt Q9NWT6)”, 0.00818; as for “INTS10 (peptide sequence: LPANLLYK, peptide start residue: 190) (UniProt Q9NVR2)”, 0.757. As for “NLRP2 (peptide sequence: KPLSLGITRK, peptide start residue: 104) (UniProt Q9NX02)”, the figure is -1.12. The figure for “USE1 (peptide sequence: LAEEMLGLAR, peptide start residue: 172) (UniProt Q9NZ43)” is -0.254.
